In paper PMC8863768:
Results are given in words; binding and its absence hold for the method and conditions named. Binding seen in cells or lysates may run through a third protein. Some binding calls cover weakened binding; strength is not graded here. Each block holds one binder with its values, some of them ahead of it.

Biological target: Nesprin-1 (mouse (endogenous in IIA1.6 B-lymphoma cells)) (UniProt Q6ZWR6)
Assay: co-IP; IP of endogenous Nesprin-1 with rabbit anti-Nesprin-1 (ab192234; non-specific rabbit IgG as control) from lysates of B cells, resting or activated for different times; IP buffer 10 mM Hepes pH 7.4, 10 mM KCl, 5 mM EDTA, 1% Triton X-100; overnight at 4°C, protein A agarose beads; Western blot

binding: no binding
B1: Sun-2 (protein, UniProt Q8BJS4 1-731)
chain: MSRRSQRLTRYSQDDNDGGSSSSGASSVAGSQGTVFKDSPLRTLKRKSSNMKHLSPAPQLGPSSDSHTSYYSESVVRESYIGSPRAVSLARSALLDDHLHSEPYWSGDLRGRRRRGTGGSESSKANGLTAESKASEDFFGSSSGYSSEDDLAGYTDSDQHSSGSRLRSAASRAGSFVWTLVTFPGRLFGLLYWWIGTTWYRLTTAASLLDVFVLTRSRHFSLNLKSFLWFLLLLLLLTGLTYGAWHFYPLGLQTLQPAVVSWWAAKESRKQPEVWESRDASQHFQAEQRVLSRVHSLERRLEALAADFSSNWQKEAIRLERLELRQGAAGHGGGSSLSHEDALSLLEGLVSRREATLKEDLRRDTVAHIQEELATLRAEHHQDSEDLFKKIVQASQESEARVQQLKTEWKSMTQEAFQESSVKELGRLEAQLASLRQELAALTLKQNSVADEVGLLPQKIQAARADVESQFPDWIRQFLLGDRGARSGLLQRDEMHAQLQELENKILTKMAEMQGKSAREAAASLGQILQKEGIVGVTEEQVHRIVKQALQRYSEDRIGMVDYALESGGASVISTRCSETYETKTALLSLFGIPLWYHSQSPRVILQPDVHPGNCWAFQGPQGFAVVRLSARIRPTAVTLEHVPKALSPNSTISSAPKDFAIFGFDEDLQQEGTLLGTFAYDQDGEPIQTFYFQASKMATYQVVELRILTNWGHPEYTCIYRFRVHGEPAH

binding: binds
B2: Sun-1 (protein, UniProt Q9D666 1-913)
chain: MDFSRLHTYTPPQCVPENTGYTYALSSSYSSDALDFETEHKLEPVFDSPRMSRRSLRLVTTASYSSGDSQAIDSHISTSRATPAKGRETRTVKQRRSASKPAFSINHLSGKGLSSSTSHDSSCSLRSATVLRHPVLDESLIREQTKVDHFWGLDDDGDLKGGNKAATQGNGELAAEVASSNGYTCRDCRMLSARTDALTAHSAIHGTTSRVYSRDRTLKPRGVSFYLDRTLWLAKSTSSSFASFIVQLFQVVLMKLNFETYKLKGYESRAYESQSYETKSHESEAHLGHCGRMTAGELSRVDGESLCDDCKGKKHLEIHTATHSQLPQPHRVAGAMGRLCIYTGDLLVQALRRTRAAGWSVAEAVWSVLWLAVSAPGKAASGTFWWLGSGWYQFVTLISWLNVFLLTRCLRNICKVFVLLLPLLLLLGAGVSLWGQGNFFSLLPVLNWTAMQPTQRVDDSKGMHRPGPLPPSPPPKVDHKASQWPQESDMGQKVASLSAQCHNHDERLAELTVLLQKLQIRVDQVDDGREGLSLWVKNVVGQHLQEMGTIEPPDAKTDFMTFHHDHEVRLSNLEDVLRKLTEKSEAIQKELEETKLKAGSRDEEQPLLDRVQHLELELNLLKSQLSDWQHLKTSCEQAGARIQETVQLMFSEDQQGGSLEWLLEKLSSRFVSKDELQVLLHDLELKLLQNITHHITVTGQAPTSEAIVSAVNQAGISGITEAQAHIIVNNALKLYSQDKTGMVDFALESGGGSILSTRCSETYETKTALLSLFGVPLWYFSQSPRVVIQPDIYPGNCWAFKGSQGYLVVRLSMKIYPTTFTMEHIPKTLSPTGNISSAPKDFAVYGLETEYQEEGQPLGRFTYDQEGDSLQMFHTLERPDQAFQIVELRVLSNWGHPEYTCLYRFRVHGEPIQ
